US20260226144A1
Residue numbers refer to the chain shown, from its start. No constants are given. Whether binding was seen depends on the method and setting. Some entries that bind do so weakly or less than the wild type. One block for each binder: values may come before it.

Chains of the proteins cited; added tags and fusions are not shown. Residues count along the entry.
UniProt P41271, residues 17-181: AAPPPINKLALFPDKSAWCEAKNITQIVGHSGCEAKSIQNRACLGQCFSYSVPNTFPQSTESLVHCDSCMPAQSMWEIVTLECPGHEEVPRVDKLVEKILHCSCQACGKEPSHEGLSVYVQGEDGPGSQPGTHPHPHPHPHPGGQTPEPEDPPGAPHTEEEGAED

Assays:
[1] = molecular target: cynomolgus ("cyno") NBL1 (cynomolgus); assay: ELISA, IgG1 format
[2] = molecular target: human NBL1 (neuroblastoma suppressor of tumorigenicity 1), recombinant (human) (UniProt P41271); assay: ELISA, IgG1 format

binding [1]: binds
binding [2]: binds
B1: Antibody YU1019-A12 (antibody, human IgG1, V domains shown)
VH: EVQLLESGPGLVKPSQTLSLTCTVSGGSISSGDYYWSWIRQPPGKGLEWIGYIYYSGSTYYNPSLKSRVTISVDTSKNQFSLKLSSVTAADTAVYYCARGRRLLLFHWGQGTTVTVSS
VL: QSVLTQPPSVSAAPGQKVTISCSGSGSSIGNNYVSWYQQVPGTPPKLLIYDNNKRASGIPDRFSGSKSGTSATLGITGLQTGDEADYYCGTWDNSLSAVVFGGGTKLTVL

binding [1]: binds
binding [2]: binds
B2: Antibody YU1018-D06 (antibody, human IgG1, V domains shown)
VH: QVQLVESGPGLVKPSQTLSLTCTVSGGSISSGGYYWSWIRQHPGKGLEWIGYIYYSGSTYYNPSLKSRVTISVDTSKNQFSLKLSSVTAADTAVYYCARSGAAGIPWFDPWGQGTLVTVSS
VL: B1 VL with G26S, S28N, V40L, P44A, D51E, K54E, A56P, F63L, G75A, N94S
